No constants are given. Whether binding was seen depends on the method and setting. In cells and extracts the contact can be indirect. Sequences can lack the tags named with a protein.
Legend:
[1] = target: T1, HCMV UL45-FLAG (large subunit of the human cytomegalovirus ribonucleotide reductase) (human cytomegalovirus) (UniProt P16782); experiment: co-IP; 293T cells co-transfected with RNR-FLAG and A3-HA; lysis buffer 150 mM NaCl, 50 mM Tris-HCl, 10% glycerol, 1% IGEPAL, pH 7.4; anti-FLAG M2 magnetic beads overnight at 4°C; eluted with 3xFLAG peptide; immunoblot with anti-HA and anti-FLAG
T1 sequence: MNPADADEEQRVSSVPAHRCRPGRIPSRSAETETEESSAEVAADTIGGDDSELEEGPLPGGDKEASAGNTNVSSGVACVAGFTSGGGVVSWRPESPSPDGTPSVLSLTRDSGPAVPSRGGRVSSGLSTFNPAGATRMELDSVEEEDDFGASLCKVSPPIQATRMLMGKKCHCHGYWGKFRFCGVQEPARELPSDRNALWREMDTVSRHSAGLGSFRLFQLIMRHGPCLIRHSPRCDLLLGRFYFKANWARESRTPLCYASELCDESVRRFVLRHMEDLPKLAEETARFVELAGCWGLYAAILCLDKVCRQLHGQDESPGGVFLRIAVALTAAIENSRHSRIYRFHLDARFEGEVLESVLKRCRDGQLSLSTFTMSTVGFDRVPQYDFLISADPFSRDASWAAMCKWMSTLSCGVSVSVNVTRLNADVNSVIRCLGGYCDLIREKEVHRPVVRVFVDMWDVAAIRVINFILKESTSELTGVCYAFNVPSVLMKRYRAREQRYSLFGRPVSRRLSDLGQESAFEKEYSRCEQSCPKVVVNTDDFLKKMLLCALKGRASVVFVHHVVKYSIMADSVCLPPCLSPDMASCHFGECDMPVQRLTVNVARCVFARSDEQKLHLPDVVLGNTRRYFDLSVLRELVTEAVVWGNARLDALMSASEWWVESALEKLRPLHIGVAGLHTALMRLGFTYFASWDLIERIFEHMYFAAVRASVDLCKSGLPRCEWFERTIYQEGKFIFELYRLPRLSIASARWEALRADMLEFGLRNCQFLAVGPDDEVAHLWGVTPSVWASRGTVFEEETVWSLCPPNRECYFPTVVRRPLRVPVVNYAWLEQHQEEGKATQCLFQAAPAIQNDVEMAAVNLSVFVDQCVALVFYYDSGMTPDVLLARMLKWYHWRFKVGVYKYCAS

The chains behind the UniProt entries cited, without tags or fusion partners.
UniProt P31941: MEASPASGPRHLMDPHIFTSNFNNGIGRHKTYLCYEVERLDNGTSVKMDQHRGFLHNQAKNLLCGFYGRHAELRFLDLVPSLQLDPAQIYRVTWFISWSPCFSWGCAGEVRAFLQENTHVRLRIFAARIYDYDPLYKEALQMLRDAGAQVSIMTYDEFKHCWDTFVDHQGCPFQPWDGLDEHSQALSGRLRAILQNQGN
UniProt Q9UH17: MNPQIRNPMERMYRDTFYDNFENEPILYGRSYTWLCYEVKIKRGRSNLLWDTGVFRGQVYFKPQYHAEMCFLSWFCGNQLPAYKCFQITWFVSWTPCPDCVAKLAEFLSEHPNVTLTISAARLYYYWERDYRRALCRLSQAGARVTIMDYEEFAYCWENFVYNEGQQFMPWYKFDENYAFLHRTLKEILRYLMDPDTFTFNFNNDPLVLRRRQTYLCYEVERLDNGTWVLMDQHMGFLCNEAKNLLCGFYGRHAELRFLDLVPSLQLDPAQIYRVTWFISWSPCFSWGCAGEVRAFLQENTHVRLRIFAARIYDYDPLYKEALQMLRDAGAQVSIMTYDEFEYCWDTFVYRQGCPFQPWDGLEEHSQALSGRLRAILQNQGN
UniProt Q9HC16: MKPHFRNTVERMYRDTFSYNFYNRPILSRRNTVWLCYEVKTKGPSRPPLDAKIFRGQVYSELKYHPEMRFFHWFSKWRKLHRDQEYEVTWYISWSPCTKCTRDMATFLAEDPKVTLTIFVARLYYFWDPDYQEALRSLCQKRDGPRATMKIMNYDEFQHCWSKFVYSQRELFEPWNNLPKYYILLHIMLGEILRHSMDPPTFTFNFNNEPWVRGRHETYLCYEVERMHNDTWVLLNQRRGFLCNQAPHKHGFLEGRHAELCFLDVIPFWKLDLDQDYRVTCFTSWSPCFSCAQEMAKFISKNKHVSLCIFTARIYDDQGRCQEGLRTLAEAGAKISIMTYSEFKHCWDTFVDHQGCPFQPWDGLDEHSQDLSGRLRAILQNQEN

[2] = target: T2, EBV BORF2-FLAG (large subunit of the Epstein-Barr virus ribonucleotide reductase) (Epstein-Barr virus) (UniProt P03190); experiment: as above
T2 sequence: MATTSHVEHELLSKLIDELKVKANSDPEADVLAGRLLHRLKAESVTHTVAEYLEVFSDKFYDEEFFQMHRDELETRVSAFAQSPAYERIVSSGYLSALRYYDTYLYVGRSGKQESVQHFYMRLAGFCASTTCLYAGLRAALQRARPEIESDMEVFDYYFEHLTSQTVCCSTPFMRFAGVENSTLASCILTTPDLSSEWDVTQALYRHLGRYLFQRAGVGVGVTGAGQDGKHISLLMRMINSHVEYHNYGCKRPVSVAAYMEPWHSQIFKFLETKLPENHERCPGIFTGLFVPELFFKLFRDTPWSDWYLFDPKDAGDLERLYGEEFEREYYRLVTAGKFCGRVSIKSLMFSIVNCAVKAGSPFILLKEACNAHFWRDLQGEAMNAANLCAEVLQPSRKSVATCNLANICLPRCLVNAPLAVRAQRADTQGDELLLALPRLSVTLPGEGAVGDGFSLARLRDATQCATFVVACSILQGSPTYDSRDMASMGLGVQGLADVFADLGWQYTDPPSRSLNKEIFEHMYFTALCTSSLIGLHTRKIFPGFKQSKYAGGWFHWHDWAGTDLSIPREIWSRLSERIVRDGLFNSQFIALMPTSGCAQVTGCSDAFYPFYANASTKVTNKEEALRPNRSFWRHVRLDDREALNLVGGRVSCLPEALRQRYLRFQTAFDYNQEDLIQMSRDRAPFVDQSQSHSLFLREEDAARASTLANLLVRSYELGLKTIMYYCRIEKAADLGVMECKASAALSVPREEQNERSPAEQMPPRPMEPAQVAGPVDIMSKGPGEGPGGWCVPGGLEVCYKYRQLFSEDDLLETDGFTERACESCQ

With “human APOBEC3A-HA (from UniProt P31941 1-199) (enzyme)” as the substance, how does the binding [1] read?
Its binding is “no binding”.

Which binding [1] does the source give for “human APOBEC3B-HA (from UniProt Q9UH17 1-382) (enzyme)” here?
Its binding is “no binding”.

For “human APOBEC3G-HA (from UniProt Q9HC16 1-384) (enzyme)”, which binding [2] is on record?
The binding was “no binding”.

From article PMC10506462
